Test results published in PubChem BioAssay AID504847 (National Center for Advancing Translational Sciences (NCATS), 2011).
Values joined by “and” are separate entries in the source; they are usually repeats but may differ in a detail not shown here. Identical values can stand only once. The campaign covered roughly 400,000 compounds. About 3,700 (0.93%) were called active. The shares of active, inactive and inconclusive entries below differ from those in the screen. The call rests on the fitted dose curve; in most records, active means well fitted inhibition curve with a large enough effect; inconclusive means small, poorly fitted or top-dose-only effect, or another doubt; inactive means no such curve, though single readings can be large or run the other way. A potency beside an inconclusive call is a rough fit, not a confirmed value. The source holds several records for some structures; these can differ, active in one and inactive in another.
On the % scale 0 is the no-effect control and ±100 the full control effect; potency means the concentration at half of the fitted maximal effect.

By UniProt entry, the sequences of proteins in these tests, tags left out. Where a name states a change or a piece, a line headed by the entry shows the natural chain unless it says otherwise.
UniProt P11473: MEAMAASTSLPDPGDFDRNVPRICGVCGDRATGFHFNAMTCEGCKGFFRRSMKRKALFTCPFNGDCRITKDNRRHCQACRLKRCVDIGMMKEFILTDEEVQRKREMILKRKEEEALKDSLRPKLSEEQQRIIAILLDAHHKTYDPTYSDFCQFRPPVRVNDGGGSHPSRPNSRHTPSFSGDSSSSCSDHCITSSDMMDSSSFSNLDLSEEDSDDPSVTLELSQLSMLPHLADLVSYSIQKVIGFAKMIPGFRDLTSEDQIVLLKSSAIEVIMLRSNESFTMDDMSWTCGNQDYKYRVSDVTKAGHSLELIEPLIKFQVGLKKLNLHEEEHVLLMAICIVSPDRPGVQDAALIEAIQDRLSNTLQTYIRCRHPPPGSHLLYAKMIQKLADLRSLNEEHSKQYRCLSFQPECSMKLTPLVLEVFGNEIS

These compounds were tested against Vitamin D3 receptor (Homo sapiens) (UniProt P11473) (assay: Inhibitors of the vitamin D receptor (VDR): qHTS). Settings: VDR-SRC2-3 peptide fluorescence polarization, 2 h; max response, negative = inhibition: hits give low values.
How it was run: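 After 23 nl compound addition and a short centrifugation, plates sat for 2 hours at ambient temperature; polarization of fluorescence then indicated loss of VDR binding to peptide SRC2-3.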
`CC1(C(=O)CSc2nc3ccccc3s2)CCC(=O)O1` (stereo unspecified) was tested, and the Potency was inconclusive: 89.1 µM [inhibitor, partial curve, poor fit].
With `CC(C)c1nnc(NC(=O)c2nc(S(=O)(=O)Cc3ccc(F)cc3)ncc2Cl)s1` the Potency was active: 10 µM.
For `O=C(CSc1oc(-c2ccccc2)nc1S(=O)(=O)c1ccc(Br)cc1)NC1CCCCC1`, the Potency was inconclusive: 89.1 µM [inhibitor, single point].
For `COc1ccc(OC)c(NC(=O)Cc2c(C(=O)O)[nH]c3ccc(Cl)cc23)c1`, the Potency was inconclusive: 3.16 µM [inhibitor, partial curve, poor fit].
`Cc1ccc(NC(=O)COC(=O)c2cc(Cl)ccc2[N+](=O)[O-])c(C)c1` was tested, and the max response, negative = inhibition was inactive: -3.32%.
In the case of `CCCCCCC(=O)N(O)C1CC(=O)N(c2ccc(Cl)cc2)C1=O` (stereo unspecified), the Potency is reported as inconclusive: 79.4 µM [inhibitor, single point].
With `CN1C/C(=C\c2ccc(N3CCOCC3)cc2)C(=O)/C(=C/c2ccc(N3CCOCC3)cc2)C1` the Potency was inconclusive: 70.8 µM [inhibitor, single point].
With `C[C@@H](Nc1nc(Cl)nc2nc[nH]c12)c1ccccc1` the Potency was inconclusive: 100 µM [inhibitor, single point].
For `O=C(O)c1[nH]c2ccccc2c1C(c1cc(Br)ccc1O)c1c(C(=O)O)[nH]c2ccccc12`, the Potency was inconclusive: 56.2 µM [inhibitor, partial curve, poor fit].
With `Cc1ccc2nc(SC(C)C(=O)N3CCCC3)[nH]c2c1` (stereo unspecified) the max response, negative = inhibition was inactive: -9.86%.
`Cc1ccc(Cl)cc1NC(=S)Nn1cnnc1` was tested, and the Potency was active: 79.4 µM.
For `Cc1cccc(NC2=C(C#N)C(=O)NC3(CCCC3)S2)c1`, the Potency was active: 20 µM.
With `Clc1ccc(C2=NNC(=NCc3ccc4c(c3)OCO4)SC2)cc1` the Potency was inconclusive: 89.1 µM [inhibitor, single point].
In the case of `O=c1c2ccccc2nc(-c2ccco2)n1/N=C/c1ccccc1O`, the max response, negative = inhibition is reported as inactive: 6.74%.
`Oc1cc(Nc2ccncc2)cc2cccnc12` was tested, and the max response, negative = inhibition was inactive: -20.6%.
For `NS(=O)(=O)c1ccc(NC(=S)NCc2ccc(Cl)cc2)cc1`, the Potency was inconclusive: 89.1 µM [inhibitor, partial curve, poor fit].
For `CN(C)CCNc1ncnc2c1sc1nc(N3CCCC3)c3c(c12)CC(C)(C)OC3`, the max response, negative = inhibition was inactive: -13.5%.
With `O=C(CSc1nc2nccnc2c(=O)n1Cc1cccs1)Nc1ccccc1` the max response, negative = inhibition was inactive: -16.8%.
For `O=C1/C(=C/c2cccs2)NC(=S)N1C1CC1`, the max response, negative = inhibition was inactive: -17.9%.
In the case of `CCC(=O)Nc1ccc(NC(=O)/C=C/c2ccc(Cl)cc2)cc1`, the Potency is reported as inconclusive: 25.1 µM [inhibitor, full curve].
For `O=C(/C=C/c1ccccc1)COC(=O)c1ccccc1`, the Potency was active: 10 µM.
For `COc1ccc(-c2cc(=O)c3c(O)cc(OC4OC(COC5OC(C)C(O)C(O)C5O)C(O)C(O)C4O)cc3o2)cc1O` (stereo unspecified), the Potency was inconclusive: 12.6 µM [inhibitor, partial curve, poor fit].
With `CCOC(=O)C1CCCN(C(=O)CSc2ccc(Br)cc2)C1` (stereo unspecified) the Potency was inconclusive: 31.6 µM [inhibitor, single point].
For `Cn1c(SCC(=O)NC2CC2)nnc1-c1ccccn1`, the Potency was inconclusive: 100 µM [inhibitor, single point].
With `COc1cc2c(cc1OC)C(C(=O)O)C(c1cc(Br)c(O)c(OC)c1)N(C)C2=O` (stereo unspecified) the max response, negative = inhibition was inactive: 6.73%.
With `O=C(Nc1ccc(O)cc1)c1ccc(NC(=O)C2CCCO2)cc1` (stereo unspecified) the max response, negative = inhibition was inactive: -7.47%.
With `Cc1ccc(-c2cc(C(=O)NCc3ccccn3)c3ccccc3n2)cc1C` the Potency was inconclusive: 50.1 µM [inhibitor, partial curve, poor fit].
For `O=C(Nc1cc(S(=O)(=O)Nc2ccc(Cl)cc2)ccc1O)c1ccc(S(=O)(=O)N2CCCCCC2)cc1`, the Potency was inconclusive: 89.1 µM [inhibitor, single point].
For `Cc1cc(C)c(C)c(S(=O)(=O)N2CCC(C(=O)N3CCN(c4ccc(F)cc4)CC3)CC2)c1C`, the max response, negative = inhibition was inactive: 7.67%.
`COc1nc(N)nc(NC(=O)c2cccs2)c1N=O` was tested, and the Potency was inconclusive: 79.4 µM [inhibitor, single point].
In the case of `Cc1cccc(Oc2nc3ccccn3c(=O)c2/C=C(\C#N)c2nc3ccccc3s2)c1C`, the Potency is reported as inconclusive: 39.8 µM [inhibitor, partial curve, poor fit].
With `Cc1cccc(NC(=O)CCS(=O)(=O)c2ccc3c(c2)NC(=O)CS3)n1` the Potency was inconclusive: 39.8 µM [inhibitor, single point].
In the case of `C=CCN1C(=O)c2ccc(C(=O)OCC(=O)Nc3ccc(S(N)(=O)=O)cc3)cc2C1=O`, the max response, negative = inhibition is reported as inactive: 8.17%.
`Clc1ccccc1-c1cc(NCc2ccccc2)ncn1` was tested, and the Potency was active: 44.7 µM.
`Cc1ccc(NC(=O)CCC(=O)N2CCOCC2)nc1` was tested, and the Potency was inconclusive: 89.1 µM [inhibitor, single point].
`O=C(Nc1nnc(S(=O)(=O)N2CCCCCC2)s1)c1ccc(Br)cc1` was tested, and the Potency was inconclusive: 100 µM [inhibitor, single point].
In the case of `C=C(C(=O)c1ccccc1)C(CC(=O)c1ccccc1)c1ccccc1` (stereo unspecified), the Potency is reported as inconclusive: 89.1 µM [inhibitor, partial curve, poor fit].
In the case of `CSc1nnc(C)c(=O)n1COC(=O)COc1ccc2ccccc2c1`, the Potency is reported as inconclusive: 89.1 µM [inhibitor, single point].
For `COc1ccc(S(=O)(=O)N2CCCCCC2)cc1C(=O)N(C)Cc1ccc(C(C)(C)C)cc1`, the Potency was inconclusive: 79.4 µM [inhibitor, partial curve, poor fit].
For `COc1ccc(N2CCN(C(=O)CCNS(=O)(=O)c3ccccc3)CC2)cc1`, the Potency was inconclusive: 31.6 µM [inhibitor, single point].
`COC(=O)Cc1ccc(NC(=S)NCCSc2ccc(C)cc2)cc1` was tested, and the max response, negative = inhibition was inactive: -8.92%.
With `CN(Cc1ccccc1)c1nc(-c2cccc([N+](=O)[O-])c2)nc2ccccc12` the Potency was inconclusive: 56.2 µM [inhibitor, partial curve, poor fit].
In the case of `CCOC(=O)c1sc(=S)[nH]c1C`, the max response, negative = inhibition is reported as inactive: -15.5%.
`CCCCn1c(N)c(N(CC(C)C)C(=O)c2ccc(N3C(=O)c4ccccc4C3=O)cc2)c(=O)[nH]c1=O` was tested, and the Potency was inconclusive: 89.1 µM [inhibitor, single point].
`Cc1ccc(NC(=O)c2sc(=S)n(-c3cc(C)ccc3F)c2N)cc1` was tested, and the Potency was active: 89.1 µM.
With `C=CCOc1ccc(/C=C\c2nc(O)c([N+](=O)[O-])c(=O)[nH]2)cc1OCC` the Potency was inconclusive: 89.1 µM [inhibitor, partial curve, poor fit].
For `Cc1ccc(C(c2c(C)[nH][nH]c2=O)c2c(C)[nH][nH]c2=O)cc1`, the Potency was inconclusive: 89.1 µM [inhibitor, single point].
`CC1(C)CC(=O)C(=Cc2cn(CCC#N)nc2-c2ccc(F)cc2)C(=O)C1` was tested, and the Potency was inconclusive: 56.2 µM [inhibitor, partial curve, poor fit].
In the case of `CC(=O)C(C(C)=O)C(NC(=O)c1cccnc1)(C(F)(F)F)C(F)(F)F`, the Potency is reported as inconclusive: 10 µM [inhibitor, partial curve, poor fit].
`Cc1cccc(NC(=O)CSc2nc(C3CCCC3)nc3c2c(=O)n(C)c(=O)n3C)c1C` was tested, and the max response, negative = inhibition was inactive: -2.4%.
For `CCOc1cc(NC(=S)NCCOC)c(OCC)cc1NC(=O)c1ccco1`, the Potency was inconclusive: 100 µM [inhibitor, single point].
With `CN(C)c1ncc2nc(CCc3ccccc3)c(=O)n(Cc3cccs3)c2n1` the Potency was inconclusive: 35.5 µM [inhibitor, full curve].
`COC(=O)c1ccc(CO/N=C2\CCCc3nonc32)cc1` was tested, and the Potency was inconclusive: 89.1 µM [inhibitor, partial curve, poor fit].
`O=C1NC2c3c(Cl)sc(Cl)c3C(=O)C2O1` (stereo unspecified) was tested, and the Potency was inconclusive: 79.4 µM [inhibitor, single point].
For `CCCCOc1ccc(C2OC34CCCCC3C(C#N)(C#N)C2(C#N)C(=N)O4)cc1` (stereo unspecified), the Potency was inconclusive: 79.4 µM [inhibitor, single point].
`O=C(NCCS(=O)(=O)N1CCN(c2ccccc2F)CC1)c1ccc(Br)o1` was tested, and the Potency was inconclusive: 39.8 µM [inhibitor, single point].
With `O=S(=O)(c1cc(Cl)cc(Cl)c1)N1CCC2CC1c1cc(Cl)ccc12` (stereo unspecified) the Potency was inconclusive: 44.7 µM [inhibitor, partial curve, poor fit].
With `Cc1ccc(NC(=O)Cn2c(CCC(=O)O)ccc2-c2ccc(Cl)cc2)cc1` the max response, negative = inhibition was inactive: 5.31% and inactive: -12.1%.
`COc1cccc(/C=C/C(=O)c2ccc(NC3=NCCCS3)cc2)c1` was tested, and the Potency was inconclusive: 22.4 µM [inhibitor, full curve, poor fit].
For `CCc1ccc(NC(=O)CSc2nc(N)c(NC(=O)c3ccc(F)c(F)c3)c(=O)[nH]2)cc1`, the max response, negative = inhibition was inactive: -9.04%.
In the case of `Cc1ccc(NS(=O)(=O)c2cccc(C(=O)NNC(=O)c3cccn3C)c2)c(C)c1`, the max response, negative = inhibition is reported as inactive: 22.3%.
With `O=C1C2C(C(=O)N1/N=C/c1ccc(N3CCCCC3)o1)C1C=CC2C12CC2` (stereo unspecified) the Potency was active: 89.1 µM.
In the case of `CCOC(=O)c1ccc(NC(=O)c2c(NCc3sccc3C)sc3c2CCCCC3)cc1`, the Potency is reported as inconclusive: 22.4 µM [inhibitor, partial curve, poor fit].
In the case of `Cc1cccc(NC(=S)N/C(=N/S(=O)(=O)c2ccccc2)c2ccccc2)c1`, the Potency is reported as active: 89.1 µM.
With `CC(=O)N1CCC2(CC1)CCN(c1cccc(-c3ccccc3)c1)CC2` the Potency was inconclusive: 89.1 µM [inhibitor, single point].
`Cc1ccc2nc3c(c(Nc4ccc5c(c4)OCCO5)c2c1)CCC3` was tested, and the Potency was inconclusive: 1.12 µM [inhibitor, full curve, poor fit].
